Results are given in words; binding and its absence hold for the method and conditions named. Some entries that bind do so weakly or less than the wild type.

Sequences of proteins named here, by UniProt entry; tags and fusion partners are left off. A change or cut given only in a name is not applied to a line headed by its entry. Residues count along the entry.
UniProt Q9WU72, residues 127-309: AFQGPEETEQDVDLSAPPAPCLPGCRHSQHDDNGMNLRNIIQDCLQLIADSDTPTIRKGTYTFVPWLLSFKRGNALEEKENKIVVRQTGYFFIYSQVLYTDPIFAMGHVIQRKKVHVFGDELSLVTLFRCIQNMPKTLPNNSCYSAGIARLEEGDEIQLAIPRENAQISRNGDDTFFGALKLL
UniProt Q9Y275: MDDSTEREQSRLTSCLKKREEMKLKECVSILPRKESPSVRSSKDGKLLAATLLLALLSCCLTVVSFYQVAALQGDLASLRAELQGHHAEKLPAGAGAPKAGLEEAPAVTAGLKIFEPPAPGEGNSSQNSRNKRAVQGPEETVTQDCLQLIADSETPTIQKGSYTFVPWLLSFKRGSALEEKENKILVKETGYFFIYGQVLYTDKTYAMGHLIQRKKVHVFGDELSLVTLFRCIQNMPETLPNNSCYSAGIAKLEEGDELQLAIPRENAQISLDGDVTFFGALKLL

Consider 15 molecules from patent US20030223996A1 (published 2003).

The target in one experiment is mouse BLyS (mouse) (UniProt Q9WU72). Put plainly: phage ELISA.
Experiment [1] concerns the target soluble form of human BLyS (human) (UniProt Q9Y275). Put plainly: phage ELISA. On the technique in general: In an ELISA, binding on a coated surface is turned into a signal by an enzyme label.
Experiment [2] has as its target biotinylated BLyS (human) (UniProt Q9Y275). Put plainly: receptor binding inhibition assay on IM9 cells, phage scFv.
Experiment [3] shares this target. As to the kind of experiment: receptor binding inhibition assay on IM9 cells, purified scFv.
Experiment [4] concerns the target membrane-bound BLyS on U937 plasma membranes (human) (UniProt Q9Y275). Put plainly: phage ELISA on U937 membranes.
Experiment [5] addresses soluble form of human BLyS (human) (UniProt Q9Y275). As to the kind of experiment: competition phage ELISA on U937 membranes; signal competed out by free BLyS.

B1: I031F09 (scFv)
scFv: QVQLVQSGAEVKKPGASVKVSCTVSGDSFSRHGISWVRQAPGQGLEWMGWISVYNGDTKYAQKVQGRVTMTTDTSTNTVYMELRRLRSDDTAVYYCARDEGRDLLTGYYWPNFFDSWGRGTLVTVSSGGGGSGGGGSGGGGSALSYVLTQPPSASGTPGQRVTISCSGSRPNIGGNTVNWYQQLPGAAPKLLIYSNSQRPSGVPDRFSGSKYGTSASLAISGLQSDDEADYYCAAWDDSLTGPVFGGGTKLTVLG
As to B1, in the experiment with mouse BLyS (mouse), the binding entry is on record as “binds”.

B2: I031G11 (scFv)
scFv: QVQLVQSGAEVKKPGASVKVSCTVSGDSFSRHGISWVRQAPGQGLEWMGWISVYNGDTKYAQKVQGRVTMTTDTSTNTVYMELRRLRSDDTAVYYCARDEGRDLLTGYYWPNFFDSWGRGTLVTVSSGGGGSGGGGSGGGGSALSYVLTQPPSVSGTPGQKVTISCSGSRPNIGGNTVNWYQQLPGAAPKLLIYSNSQRPSGVPDRFSGSKYGTSASLAISGLQSDDEADYYCAAWDDSLTGPVFGGGTKLTVLG
For the molecule B2, in the experiment with mouse BLyS (mouse), the binding entry was “binds”.

B3: I031C03 (scFv)
scFv: QMQLVQSGAEVRKPGSSVKVSCKASGGSFSSHVFSWVRQAPGQGLEWVGGITPKFATPNYAQKFQHRVTITADELTRTVFMDLSGLRSEDTAVYYCARGYDSSAFRAFDIWGQGTLVTVSSGGGGSGGGGSGGGGSAQSVLTQPPSVSAAPGQKVTISCSGSSSNIGNNYVSWYQQFPGTAPKLLIYDNNNRPSGVPDRFSGSKSGTSATLGITGLQTGDEADYYCGTWDRSLSVVVFGGGTKVTVLG
For B3, the binding result in the experiment with mouse BLyS (mouse) is given as “binds”.

B4: I050A12 (scFv)
scFv: EVQLVQSGAEVKKPGSSVKVSCKASGDTFSHYAINWVRQAPGQGLEWMGGIIPTFNAVKYAQKFQGRATITADGSTSTAYMELNSLRSEDTAVYYCATAPYDLLTHYFHYFDYWGQGTMVTVSSGGGGSGGGGSGGGGSALSSELTQDPAVSVTLGQTVRITCQGDSLRSYYPSWYQQKPGQAPVLVIYPKNIRPSGIPDRFSGSSSGNTASLTITGAQAEDEADYYCNSRASSGNHYVFATGTKLTVLG
Turning to B4, the binding entry in the experiment with mouse BLyS (mouse) was “binds”.

B5: I031F02 (scFv)
scFv: QVQLVQSGAEVRKPGSSVKVSCKASGGSFSSHVFSWVRQAPGQGLEWVGGITPKFATPNYAQKFQHRVTITADELTRTVFMDLSGLRSEDTAVYYCARGYDSSAFRAFDIWGQGTMVTVSSGGGGSGGGGSGGGGSAQSVLTQPPSVSGAPGQRVTISCTGSSSNIGAGYDVQWYQQLPGTAPKLLIHGNNNRPSGVPDRFSGSKSGTSASLAITGLQDEDEADYYCQSYDSSLSFSGYVFGTGTKVTVLG
Take B5: the binding entry with mouse BLyS (mouse) is “binds”.

B6: I008C02 (scFv)
scFv: AVQLQESGPGLVKPSETLSLTCSVSGASMTTNKFYWSWIRQPPGKGLEWIGNINYSKSTNYNPSLKSRITISVDTSKNQLSLKLNSVTAADTAVYYCARHVRDYDILTGYYRGHYFDYWGQGTMVTVSSGGGGSGGGGSGGGGSQSVLTQPASVSGSPGQSITISCTGTSSDVGGYNYVSWYQQHPGKAPKLMIYEGSKRPSGVSNRFSGSKSGNTASLTISGLQAEDEADYYCSSYTTRSTRVFGGGTKLTVLG
Turning to B6, the binding result with mouse BLyS (mouse) is recorded as “binds”.

B7: I067F05 (scFv)
scFv: QVQLQQSGAEVKKPGSSVKVSCKASGGTFSSYAISWVRQAPGQGLEWMGRIIPIVNMANYAQKFQGRVTLTADKSTGTAYMELTSLRSEDTAVYYCARENYDSLTGYYGAFDIWGKGTMVTVSSGGGGSGGGGSGGGGSQSVLTQPASVSGSPGQSITISCTGTSSDVGGYNYVSWYQQHPGKAPKLMIYEGSKRPSGVSNRFSGSKSGNTASLTISGLQAEDEADYYCSSYTTRSTRVFGGGTKLTVLG
For the molecule B7, the binding result in the experiment with mouse BLyS (mouse) is reported as “binds”.

B8: I051C04 (scFv)
scFv: QVQLQQSGAEVKKPGSSVKVSCRTSGGTFSNYGLSWVRQAPGQGLEWMGGVIPISSTIKYGQKFQDRLTIAADDLTNTTFMELSSLRPEDTAVYYCARAATTSQKHNKYAYYFYGMDVWGQGTMVTVSSGGGGSGGGGSGGGGSAQSALTQPASVSGSPGQSITISCTGTSSDVGGYNYVSWYQQHPGKAPKLMIYEVSNRPSGVSNRFSGSKSGNTASLTISGLQAEDEADYYCSSYTSSSTLVFGGGTKVTVLG
For B8, the binding entry in the experiment with mouse BLyS (mouse) is given as “binds”.

B9: I008B01 (scFv)
scFv: QVQLVQSGAEVMKPGASVKVSCKASGYNFNNYAMQWVRQAPGQRLEWMGWIVPGNGKTKYSQKFQDRVTIARDTSASTVYMELSSLTSEDTAMYYCARATYDPLTGYSFDGFDIWGQGTTVTVSSGGGGSGGGGSGGGGSQSVLTQPASVSGSPGQSITISCTGTSSDVGGYNYVSWYQQHPGKAPKLMIYEGSKRPSGVSNRFSGSKSGNTASLTISGLQAEDEADYYCSSYTTRSTRVFGGGTKLTVLG
Consider B9, for which, in the experiment with mouse BLyS (mouse), the binding result is listed as “binds”.

B10: I026C04-K (scFv)
scFv: QVQLVQSGAEVKKPGSSVKVSCRASGGSFNKHAISWVRQAPGRGLEWMGGILPMYGTANYAQKFQGRVTITADKLTNTVYMDLSRLRYEDTAVYYCARELGLSIVGATTGALDMWGKGTLVTVSSGGGGSGGGGSGGGGSAQSVLTQPPSVSAAPGQKVTISCSGSSSNIGNNYVSWYQQIPGTAPKLLIYENNKRPSGIPDRFSGSKSGASATLDITGLQTGDEADYYCGTWHSSQVVFGGGTKLTVLG
For the molecule B10, the binding result in experiment [1], in experiment [2] and in experiment [3] was “binds” in each case.

B11: I078D02 (scFv)
scFv: QVQLQQSGAEVKKPGASVKVSCKASGYTFTSYGISWVRQAPGQGLEWMGWISAYNGNTNYAQKLQGRVTMTTDTSTSTAYMELRSLRSDDTAVYYCARVYYDILTGYNLFFDYWGKGTMVTVSSGGGGSGGGGSGGGGSQSVLTQPASVSGSPGQSITISCTGTSSDVGGYNYVSWYQQHPGKAPKLMIYEGSKRPSGVSNRFSGSKSGNTASLTISGLQAEDEADYYCSSYTTRSTRVFGGGTKLTVLG
In the case of B11, in the experiment with mouse BLyS (mouse), the binding entry is “binds”.

B12: I028A06 (scFv)
scFv: QVQLVESGGGLIQPGGSLRLSCAASGFSFGSYAMSWIRQAPGKGLEWVSTSTGRGGSTYYADSVKGRFTISRDNAKNSLYLQMNSLRAEDAAVYYCARGGDYDILTGLYYYGMDVWGKGTMVTVSSGGGGSGGGGSGGGGSSYVLTQPPSVSGTPGQRVTISCSGGRSNIGSNTVKWYQQLPGTAPKLLIYGNDQRPSGVPDRFSGSKSGTSASLAITGVQAEDEADYYCQSYDSSLRGSRVFGTGTKVTVLG
For B12, the binding entry with mouse BLyS (mouse) was “binds”.

B13: I003F12S (scFv)
scFv: QVQLLQSAAELKKPGQSLKISCKGSGFTFTTYWIGWVRQLPGKGLEWMGIIYPGDSHTTYSPSFEGHVNISVDKSINTAYLQWSSLKASDTAMYYCARHDDDVLTGYYFESWGQGTMVTVSSGGGGSGGGGSGGGGSQSVLTQPASVSGSPGQSITISCTGTSSDVGGYNYVSWYQQHPGKAPKLMIYEGSKRPSGVSNRFSGSKSGNTASLTISGLQAEDEADYYCSSYTTRSTRVFGGGTKLTVLG
For B13, the binding result (in the experiment with mouse BLyS (mouse); in experiment [1]; in experiment [4]; in experiment [5]) was “binds” in each case.

B14: I018C02 (scFv)
scFv: QVQLQQSGSELKKPGASVIVSCKVSGYSLTKMSMHWVRQSPGEGLEWVGGIDPETRQPVYAQKFQGRVTITKDTSASAAYMELSSLGSEDTALYYCARATYDPLTGYSFDGFDIWGQGTLVTVSSGGGGSGGGGSGGGGSQSVLTQPASVSGSPGQSITISCTGTSSDVGGYNYVSWYQQHPGKAPKLMIYEGSKRPSGVSNRFSGSKSGNTASLTISGLQAEDEADYYCSSYTTRSTRVFGGGTKLTVLG
Consider B14, for which, in the experiment with mouse BLyS (mouse), the binding result is listed as “binds”.

B15: I016F04 (scFv)
scFv: QVQLQQSGSELKKPGASVKVSCKVSGYSLTKMSMHWVRQSPGEGLEWVGGIDPETRQPVYAQKFQGRVTITKDTSASAAYMELSSLGSEDTALYYCARATYDPLTGYSFDGFDIWGQGTLVTVSSGGGGSGGGGSGGGGSQSVLTQPASVSGSPGQSITISCTGTSSDVGGYNYVSWYQQHPGKAPKLMIYEGSKRPSGVSNRFSGSKSGNTASLTISGLQAEDEADYYCSSYTTRSTRVFGGGTKLTVLG
Turning to B15, the binding entry with mouse BLyS (mouse) is reported as “binds”.
